We go through one molecule from article doi:10.1101/2021.07.08.451585.

These are yes or no findings as the source states them, for the method shown. Binding seen in cells or lysates may run through a third protein. A result given as binding can be weak or reduced; the word gives no strength. Sequences can lack the tags named with a protein.

For this experiment, the target named is ectopically expressed 3xHA-CLUH protein (not stated (human or mouse cDNA cloned)). As to the kind of experiment: co-IP.

B1: GFP-KNSTRN (protein, UniProt Q9Y448 1-316)
chain: MAAPEAPPLDRVFRTTWLSTECDSHPLPPSYRKFLFETQAADLAGGTTVAAGNLLNESEKDCGQDRRAPGVQPCRLVTMTSVVKTVYSLQPPSALSGGQPADTQTRATSKSLLPVRSKEVDVSKQLHSGGPENDVTKITKLRRENGQMKATDTATRRNVRKGYKPLSKQKSEEELKDKNQLLEAVNKQLHQKLTETQGELKDLTQKVELLEKFRDNCLAILESKGLDPALGSETLASRQESTTDHMDSMLLLETLQEELKLFNETAKKQMEELQALKVKLEMKEERVRFLEQQTLCNNQVNDLTTALKEMEQLLEM
In the case of B1, the binding result was “binds”.
